Molecules are shown by their SMILES.

A short description of the data set: Neurotoxicity observation (motility, muscle tonus, respiratory frequency, body temperature, general behaviour). Further details: species or system mice (NMRI). The note with it: in vivo, po, mouse; read-out: Neurotoxic limiting dose in the mouse. The method, then: During the above-described experiments, the animals were observed during the whole of the experimental period (up to 4 hours) for signs of substance-caused changes of behaviour and neurotoxicity (motility, muscle tonus, respiratory frequency, body temperature and general behaviour). Up to a dosage of 100 mg./kg., in the case of all the tested compounds, no neurotoxic symptoms were ascertained. In comparison hereto, the following Table 16 sets out the lower limiting dosages of conventional anticonvulsives which, after oral administration, bring about neurotoxicity symptoms in mice.

On to `CN1C(=O)CN=C(c2ccccc2)c2cc(Cl)ccc21` [Diazepam, reference compound], for which the TD50 is 40 mg/kg.

The values are drawn from patent US4855320A, “5-arylalkyl-4-alkoxy-2(5H)-furanones, intermediates and processes for the preparation thereof and medicaments containing them” (Dr. Willmar Schwabe GmbH & Company, priority 1986, dated 1989).
